Measured data: PubChem BioAssay AID504791 (Drosophila RNAi Screening Center, 2011)
In all, the deposit lists about 23,000 reagents; this is a random part of those with a known target gene and a result. Over the whole deposit, 199 (0.86%) got an active call. 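Plate-scaled ratios behind the calls are not deposited; printed light signals are raw; many rows marked increased or decreased are still called inactive.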 A number with no mark means an inactive call. A plus sign joins genes that one reagent is predicted to hit. The record does not give: the direction of the score.

Screen: 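Genes of the fly required for silencing by miRNA, siRNA or endo-siRNA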 (primary screen)
System: Drosophila S2-derived reporter cells
Reagent: long dsRNA against Drosophila genes, about 150-250 ng dsRNA per well (siRNA assay); about 80-120 ng (miRNA assay)
Time to read-out: about 5 days (siRNA assay); about 4 days (miRNA assay)
Conditions: copper sulfate induction of reporters: 25 µM (siRNA assay); 200 mM stated (miRNA assay), 1-2 days before reading
Read-out: 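Per-well ratio of Renilla over firefly light, expressed relative to that plate's average ratio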
Units: stable assay Renilla, run 1 in luminescence; stable assay firefly, run 1 in luminescence
Hit rule: 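a well was a first-pass pick when its plate-scaled ratio rose above 1.5 (siRNA assay) or 1.6 (miRNA assay), or dropped below 0.6; a gene counted only if two separate dsRNAs agreed on retest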

p53 [DRSC17024]
- stable assay Renilla, run 1: 7912
- stable assay firefly, run 1: 3.36e5

obst-G [DRSC11103]
- stable assay Renilla, run 1: 5755
- stable assay firefly, run 1: 3.17e5

Dus2 [DRSC19591]
- stable assay Renilla, run 1: 8130
- stable assay firefly, run 1: 4.91e5

Fhos [DRSC08943]
- stable assay Renilla, run 1: 4531
- stable assay firefly, run 1: 3.34e5

Fhos [DRSC10545]
- stable assay Renilla, run 1: 9351
- stable assay firefly, run 1: 4.25e5

Fhos [DRSC10546]
- stable assay Renilla, run 1: 7719
- stable assay firefly, run 1: 3.71e5

Fhos [DRSC10547]
- stable assay Renilla, run 1: 5308
- stable assay firefly, run 1: 3.03e5

TM9SF3 [DRSC09747]
- stable assay Renilla, run 1: 5427
- stable assay firefly, run 1: 3.39e5

neb [DRSC03577]
- stable assay Renilla, run 1: 8067
- stable assay firefly, run 1: 2.18e6

SF2 [DRSC16845]
- stable assay Renilla, run 1: 6666
- stable assay firefly, run 1: 3.36e5

Naxd [DRSC09722]
- stable assay Renilla, run 1: 9140
- stable assay firefly, run 1: 2.78e5

CG5033 [DRSC07410]
- stable assay Renilla, run 1: 9291
- stable assay firefly, run 1: 3.40e5

Tmtc3 [DRSC04444]
- stable assay Renilla, run 1: 1.50e5
- stable assay firefly, run 1: 5.74e5

Nup160 + RfC38 [DRSC01997]
- stable assay Renilla, run 1: 9510
- stable assay firefly, run 1: 5.57e5

RpL40 [DRSC00782]
- stable assay Renilla, run 1: 7374
- stable assay firefly, run 1: 4.59e5

mGluR [DRSC17215]
- stable assay Renilla, run 1: 6734
- stable assay firefly, run 1: 3.54e5

CG6333 [DRSC10626]
- stable assay Renilla, run 1: 6424
- stable assay firefly, run 1: 3.73e5

CG14567 [DRSC11728]
- stable assay Renilla, run 1: 6199
- stable assay firefly, run 1: 3.57e5

CG33225 [DRSC03881]
- stable assay Renilla, run 1: 5460
- stable assay firefly, run 1: 3.69e5

CG32576 [DRSC19136]
- stable assay Renilla, run 1: 4407
- stable assay firefly, run 1: 3.94e5

CG13870 [DRSC06429]
- stable assay Renilla, run 1: 6579
- stable assay firefly, run 1: 3.99e5

tn [DRSC05768]
- stable assay Renilla, run 1: 5391
- stable assay firefly, run 1: 3.47e5

tn [DRSC06532]
- stable assay Renilla, run 1: 9075
- stable assay firefly, run 1: 3.96e5

6 entries already listed, ordered by “stable assay Renilla, run 1”, ascending:
Fhos [DRSC10547]
- stable assay Renilla, run 1: 5308
- stable assay firefly, run 1: 3.03e5

TM9SF3 [DRSC09747]
- stable assay Renilla, run 1: 5427
- stable assay firefly, run 1: 3.39e5

SF2 [DRSC16845]
- stable assay Renilla, run 1: 6666
- stable assay firefly, run 1: 3.36e5

neb [DRSC03577]
- stable assay Renilla, run 1: 8067
- stable assay firefly, run 1: 2.18e6

Naxd [DRSC09722]
- stable assay Renilla, run 1: 9140
- stable assay firefly, run 1: 2.78e5

CG5033 [DRSC07410]
- stable assay Renilla, run 1: 9291
- stable assay firefly, run 1: 3.40e5

The listing continues.
CG1773 [DRSC06688]
- stable assay Renilla, run 1: 7538
- stable assay firefly, run 1: 3.87e5

CG33003 [DRSC22419]
- stable assay Renilla, run 1: 4719
- stable assay firefly, run 1: 4.57e5

CG9806 [DRSC18444]
- stable assay Renilla, run 1: 5471
- stable assay firefly, run 1: 4.46e5

CG32117 [DRSC21652]
- stable assay Renilla, run 1: 9697
- stable assay firefly, run 1: 4.48e5

CG9427 [DRSC16490]
- stable assay Renilla, run 1: 7913
- stable assay firefly, run 1: 3.99e5

Ciz1 [DRSC09675]
- stable siRNA reporter change: reporter ratio lowered past the hit cutoff (active)
- miRNA reporter change: reporter ratio lowered past the hit cutoff
- stable assay Renilla, run 1: 3583
- stable assay firefly, run 1: 3.65e5

Ciz1 [DRSC25065]
- miRNA reporter change: reporter ratio lowered past the hit cutoff (active)

CG13563 [DRSC22153]
- stable assay Renilla, run 1: 9183
- stable assay firefly, run 1: 5.87e5

CG13375 [DRSC18621]
- stable assay Renilla, run 1: 6527
- stable assay firefly, run 1: 4.07e5

CG30110 [DRSC05686]
- stable assay Renilla, run 1: 5371
- stable assay firefly, run 1: 3.45e5

CG3702 [DRSC00628]
- stable assay Renilla, run 1: 12217
- stable assay firefly, run 1: 7.29e5

Lnpk [DRSC07254]
- stable assay Renilla, run 1: 5475
- stable assay firefly, run 1: 3.62e5
